This passage reports binding results from PMC11304257.

Chains of the proteins cited; added tags and fusions are not shown.
UniProt P78527: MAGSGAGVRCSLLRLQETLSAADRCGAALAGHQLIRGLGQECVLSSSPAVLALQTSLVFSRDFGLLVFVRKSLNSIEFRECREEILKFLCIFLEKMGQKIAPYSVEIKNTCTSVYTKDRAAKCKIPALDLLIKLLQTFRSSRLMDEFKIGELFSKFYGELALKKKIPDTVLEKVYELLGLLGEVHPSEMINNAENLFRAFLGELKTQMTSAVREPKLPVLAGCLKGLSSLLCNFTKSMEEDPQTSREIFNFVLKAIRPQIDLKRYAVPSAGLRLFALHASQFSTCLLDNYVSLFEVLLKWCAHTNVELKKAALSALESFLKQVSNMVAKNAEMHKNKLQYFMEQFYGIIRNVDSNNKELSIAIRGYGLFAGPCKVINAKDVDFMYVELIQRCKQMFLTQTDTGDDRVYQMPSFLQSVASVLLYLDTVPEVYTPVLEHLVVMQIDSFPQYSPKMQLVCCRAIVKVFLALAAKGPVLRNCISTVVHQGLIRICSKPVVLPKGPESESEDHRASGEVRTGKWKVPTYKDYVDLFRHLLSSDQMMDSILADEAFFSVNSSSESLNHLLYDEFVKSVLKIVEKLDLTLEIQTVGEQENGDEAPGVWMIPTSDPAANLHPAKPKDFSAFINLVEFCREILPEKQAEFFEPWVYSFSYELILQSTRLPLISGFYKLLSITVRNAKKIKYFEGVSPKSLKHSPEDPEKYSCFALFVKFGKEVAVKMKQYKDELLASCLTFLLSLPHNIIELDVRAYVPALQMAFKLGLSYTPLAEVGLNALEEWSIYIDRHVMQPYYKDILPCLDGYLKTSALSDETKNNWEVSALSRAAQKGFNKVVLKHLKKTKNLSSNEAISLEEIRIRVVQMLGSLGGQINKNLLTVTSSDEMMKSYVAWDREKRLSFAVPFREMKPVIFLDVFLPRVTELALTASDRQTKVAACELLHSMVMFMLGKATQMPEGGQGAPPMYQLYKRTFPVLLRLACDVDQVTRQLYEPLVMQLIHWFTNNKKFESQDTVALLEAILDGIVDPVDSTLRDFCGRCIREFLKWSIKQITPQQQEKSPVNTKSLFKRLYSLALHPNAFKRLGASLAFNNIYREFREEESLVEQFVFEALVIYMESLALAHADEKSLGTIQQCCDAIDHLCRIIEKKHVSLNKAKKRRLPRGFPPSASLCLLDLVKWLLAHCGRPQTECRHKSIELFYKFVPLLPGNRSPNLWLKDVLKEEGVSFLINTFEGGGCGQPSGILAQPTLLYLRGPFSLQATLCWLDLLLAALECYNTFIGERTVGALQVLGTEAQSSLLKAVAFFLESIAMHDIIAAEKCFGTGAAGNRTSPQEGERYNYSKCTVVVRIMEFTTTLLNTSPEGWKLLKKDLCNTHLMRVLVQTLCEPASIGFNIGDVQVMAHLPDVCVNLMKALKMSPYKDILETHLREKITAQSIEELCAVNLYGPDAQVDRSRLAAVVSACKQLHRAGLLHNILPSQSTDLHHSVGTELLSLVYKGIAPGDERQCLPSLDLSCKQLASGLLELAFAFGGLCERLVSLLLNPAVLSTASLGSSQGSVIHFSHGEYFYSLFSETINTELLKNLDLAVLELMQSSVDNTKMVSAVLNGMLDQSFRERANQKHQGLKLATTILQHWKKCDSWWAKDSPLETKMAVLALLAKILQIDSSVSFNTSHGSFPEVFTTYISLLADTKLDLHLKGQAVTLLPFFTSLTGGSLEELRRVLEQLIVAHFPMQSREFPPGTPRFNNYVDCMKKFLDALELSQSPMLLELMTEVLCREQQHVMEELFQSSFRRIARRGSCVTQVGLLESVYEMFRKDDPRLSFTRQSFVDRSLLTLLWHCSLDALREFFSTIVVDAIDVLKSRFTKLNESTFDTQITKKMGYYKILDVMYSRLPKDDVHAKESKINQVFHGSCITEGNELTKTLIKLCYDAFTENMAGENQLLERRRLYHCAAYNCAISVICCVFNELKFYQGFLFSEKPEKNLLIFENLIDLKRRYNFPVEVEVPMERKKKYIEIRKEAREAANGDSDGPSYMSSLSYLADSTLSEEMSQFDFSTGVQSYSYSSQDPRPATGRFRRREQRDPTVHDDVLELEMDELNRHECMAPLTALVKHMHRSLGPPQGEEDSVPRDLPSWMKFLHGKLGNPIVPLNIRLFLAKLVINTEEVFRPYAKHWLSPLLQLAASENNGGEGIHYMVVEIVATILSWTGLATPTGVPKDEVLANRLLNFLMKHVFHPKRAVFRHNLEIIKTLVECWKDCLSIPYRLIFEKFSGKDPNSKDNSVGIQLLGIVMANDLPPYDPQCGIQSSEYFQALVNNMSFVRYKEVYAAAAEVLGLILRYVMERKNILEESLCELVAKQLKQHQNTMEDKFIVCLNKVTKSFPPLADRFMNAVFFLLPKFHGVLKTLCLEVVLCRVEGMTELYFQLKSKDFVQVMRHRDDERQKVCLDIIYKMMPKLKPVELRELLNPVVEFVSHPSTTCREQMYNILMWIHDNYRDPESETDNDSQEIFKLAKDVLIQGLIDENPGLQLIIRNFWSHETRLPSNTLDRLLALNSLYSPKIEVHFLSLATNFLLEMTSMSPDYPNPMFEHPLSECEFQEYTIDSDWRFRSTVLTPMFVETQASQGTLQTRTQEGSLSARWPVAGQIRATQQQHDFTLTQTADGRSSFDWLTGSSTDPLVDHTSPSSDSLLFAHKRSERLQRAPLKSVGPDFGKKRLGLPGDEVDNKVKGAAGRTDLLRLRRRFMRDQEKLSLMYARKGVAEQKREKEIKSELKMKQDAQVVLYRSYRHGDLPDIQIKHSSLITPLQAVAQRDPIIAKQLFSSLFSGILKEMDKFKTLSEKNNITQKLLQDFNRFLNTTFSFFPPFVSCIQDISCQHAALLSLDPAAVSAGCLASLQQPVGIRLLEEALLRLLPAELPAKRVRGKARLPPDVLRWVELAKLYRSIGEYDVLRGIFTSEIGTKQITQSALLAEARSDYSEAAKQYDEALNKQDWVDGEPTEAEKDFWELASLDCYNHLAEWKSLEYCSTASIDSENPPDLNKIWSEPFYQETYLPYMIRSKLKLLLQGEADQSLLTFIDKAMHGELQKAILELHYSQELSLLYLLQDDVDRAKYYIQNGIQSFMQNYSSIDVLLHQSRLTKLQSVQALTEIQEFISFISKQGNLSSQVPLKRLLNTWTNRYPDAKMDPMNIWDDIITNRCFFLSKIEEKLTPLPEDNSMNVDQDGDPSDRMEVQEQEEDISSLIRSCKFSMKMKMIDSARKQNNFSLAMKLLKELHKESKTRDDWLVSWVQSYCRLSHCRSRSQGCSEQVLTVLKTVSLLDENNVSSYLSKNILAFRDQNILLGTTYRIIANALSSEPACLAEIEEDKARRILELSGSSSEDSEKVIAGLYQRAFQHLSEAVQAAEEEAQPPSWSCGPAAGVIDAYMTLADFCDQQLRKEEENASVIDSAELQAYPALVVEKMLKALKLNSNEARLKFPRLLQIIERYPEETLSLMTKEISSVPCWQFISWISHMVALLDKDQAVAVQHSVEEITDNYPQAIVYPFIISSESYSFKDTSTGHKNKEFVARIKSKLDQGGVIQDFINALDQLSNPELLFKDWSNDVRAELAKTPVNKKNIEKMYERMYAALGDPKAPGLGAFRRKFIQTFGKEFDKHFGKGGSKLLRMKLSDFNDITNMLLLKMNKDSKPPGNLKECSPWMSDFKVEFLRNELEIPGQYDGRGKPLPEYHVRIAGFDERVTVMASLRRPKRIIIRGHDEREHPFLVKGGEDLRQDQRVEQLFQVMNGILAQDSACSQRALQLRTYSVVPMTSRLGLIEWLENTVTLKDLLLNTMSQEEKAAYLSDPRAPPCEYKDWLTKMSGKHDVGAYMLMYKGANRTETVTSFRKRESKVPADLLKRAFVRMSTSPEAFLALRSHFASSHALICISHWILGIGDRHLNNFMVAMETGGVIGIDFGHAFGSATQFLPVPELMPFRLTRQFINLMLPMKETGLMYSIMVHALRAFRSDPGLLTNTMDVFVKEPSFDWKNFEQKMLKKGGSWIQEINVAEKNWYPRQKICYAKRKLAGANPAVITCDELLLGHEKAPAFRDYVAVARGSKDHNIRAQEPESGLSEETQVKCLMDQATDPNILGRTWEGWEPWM
UniProt P12956: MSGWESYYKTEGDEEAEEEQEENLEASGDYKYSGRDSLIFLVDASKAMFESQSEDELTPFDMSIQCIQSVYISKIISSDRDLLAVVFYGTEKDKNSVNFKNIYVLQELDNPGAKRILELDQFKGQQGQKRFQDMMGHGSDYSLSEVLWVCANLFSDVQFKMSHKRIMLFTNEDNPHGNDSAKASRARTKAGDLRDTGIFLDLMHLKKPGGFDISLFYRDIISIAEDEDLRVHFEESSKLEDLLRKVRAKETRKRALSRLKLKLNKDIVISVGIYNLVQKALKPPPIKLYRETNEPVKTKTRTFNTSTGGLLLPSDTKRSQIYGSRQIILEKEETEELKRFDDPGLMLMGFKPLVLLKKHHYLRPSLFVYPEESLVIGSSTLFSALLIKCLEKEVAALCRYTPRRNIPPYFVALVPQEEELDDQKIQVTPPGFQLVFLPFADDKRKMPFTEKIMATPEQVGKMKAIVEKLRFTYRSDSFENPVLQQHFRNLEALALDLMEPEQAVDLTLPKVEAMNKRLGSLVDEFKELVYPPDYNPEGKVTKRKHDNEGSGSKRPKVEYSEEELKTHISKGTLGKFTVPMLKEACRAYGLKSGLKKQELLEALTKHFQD
UniProt P13010: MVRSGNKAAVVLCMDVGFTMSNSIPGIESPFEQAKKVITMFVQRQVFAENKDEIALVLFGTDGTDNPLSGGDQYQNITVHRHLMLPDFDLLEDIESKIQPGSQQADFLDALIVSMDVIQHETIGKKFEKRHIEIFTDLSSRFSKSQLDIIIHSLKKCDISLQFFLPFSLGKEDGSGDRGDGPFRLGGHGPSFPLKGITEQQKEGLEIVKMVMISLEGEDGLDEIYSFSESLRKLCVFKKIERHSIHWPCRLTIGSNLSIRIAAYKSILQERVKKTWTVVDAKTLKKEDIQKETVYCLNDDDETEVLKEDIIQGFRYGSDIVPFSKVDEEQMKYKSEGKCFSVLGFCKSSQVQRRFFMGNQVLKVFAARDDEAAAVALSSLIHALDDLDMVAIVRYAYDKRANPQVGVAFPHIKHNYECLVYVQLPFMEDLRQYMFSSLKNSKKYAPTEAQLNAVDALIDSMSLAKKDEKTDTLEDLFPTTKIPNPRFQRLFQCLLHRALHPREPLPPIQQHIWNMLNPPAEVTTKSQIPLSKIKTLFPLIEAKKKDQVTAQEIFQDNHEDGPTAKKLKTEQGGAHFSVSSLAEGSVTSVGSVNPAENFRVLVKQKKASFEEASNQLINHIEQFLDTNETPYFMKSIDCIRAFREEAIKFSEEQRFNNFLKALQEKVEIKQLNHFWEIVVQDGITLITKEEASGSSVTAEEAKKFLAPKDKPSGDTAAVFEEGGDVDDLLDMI

No constants are given. Whether binding was seen depends on the method and setting. In cells and extracts the contact can be indirect. These calls come from enrichment with a bait or labelling near it, and not all partners need be listed. Tags and fused reporters may be left off the sequences shown.

This assay addresses T1, Flag-TRIM24 wild type (tripartite motif containing 24) (human) (UniProt O15164).
T1 sequence: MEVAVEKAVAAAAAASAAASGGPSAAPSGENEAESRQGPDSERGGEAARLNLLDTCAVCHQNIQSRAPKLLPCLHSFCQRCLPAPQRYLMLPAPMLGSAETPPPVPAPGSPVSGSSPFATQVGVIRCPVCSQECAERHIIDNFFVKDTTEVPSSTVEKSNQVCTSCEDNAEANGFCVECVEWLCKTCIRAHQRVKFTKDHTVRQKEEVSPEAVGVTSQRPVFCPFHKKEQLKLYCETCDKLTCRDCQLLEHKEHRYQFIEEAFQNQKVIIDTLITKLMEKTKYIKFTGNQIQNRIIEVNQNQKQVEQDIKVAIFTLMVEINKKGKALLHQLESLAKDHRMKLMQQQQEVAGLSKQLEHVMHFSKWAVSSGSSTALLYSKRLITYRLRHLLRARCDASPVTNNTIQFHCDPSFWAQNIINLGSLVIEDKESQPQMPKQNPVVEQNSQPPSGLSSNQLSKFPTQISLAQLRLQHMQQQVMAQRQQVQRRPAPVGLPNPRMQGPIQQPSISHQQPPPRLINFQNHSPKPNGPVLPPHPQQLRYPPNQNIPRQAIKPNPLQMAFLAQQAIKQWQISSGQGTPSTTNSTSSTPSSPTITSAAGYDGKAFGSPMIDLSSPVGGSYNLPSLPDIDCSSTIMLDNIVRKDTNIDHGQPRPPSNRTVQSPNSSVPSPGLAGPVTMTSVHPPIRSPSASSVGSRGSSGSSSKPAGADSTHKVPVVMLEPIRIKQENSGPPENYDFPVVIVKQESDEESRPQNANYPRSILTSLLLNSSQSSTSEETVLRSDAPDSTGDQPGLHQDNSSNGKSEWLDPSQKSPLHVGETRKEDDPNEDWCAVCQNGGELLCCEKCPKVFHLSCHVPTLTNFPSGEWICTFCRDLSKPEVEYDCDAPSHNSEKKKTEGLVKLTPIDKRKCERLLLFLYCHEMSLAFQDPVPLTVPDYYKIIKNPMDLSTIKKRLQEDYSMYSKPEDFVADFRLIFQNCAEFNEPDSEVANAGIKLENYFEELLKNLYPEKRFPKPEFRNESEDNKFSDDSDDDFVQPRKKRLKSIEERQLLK
Put plainly: affinity purification with mass spectrometry; TRIM24 complex purified from NHA/HRas^V12/TRIM24 or control cells (anti-FLAG antibody pull-down by the results; TRIM24 antibody by the methods), SDS-PAGE with silver staining, LC-MS/MS.
For the substance “DNA-dependent protein kinase catalytic subunit (DNA-PKcs) (from UniProt P78527 1-4128) (enzyme)”, the binding entry is “binds”. Take “Ku70 (endogenous) (from UniProt P12956 1-609)”: the binding entry was “binds”. In the case of “Ku80 (endogenous) (from UniProt P13010 1-732)” it was “binds”.
